Measured values as given in publication PMC9141838.
Results are given in words; binding and its absence hold for the method and conditions named. Binding seen in cells or lysates may run through a third protein. Some entries that bind do so weakly or less than the wild type. Tags and fused reporters may be left off the sequences shown.

T1: Flag-tagged USP39 (ubiquitin-specific protease 39) (human) (UniProt Q53GS9)
T1 sequence: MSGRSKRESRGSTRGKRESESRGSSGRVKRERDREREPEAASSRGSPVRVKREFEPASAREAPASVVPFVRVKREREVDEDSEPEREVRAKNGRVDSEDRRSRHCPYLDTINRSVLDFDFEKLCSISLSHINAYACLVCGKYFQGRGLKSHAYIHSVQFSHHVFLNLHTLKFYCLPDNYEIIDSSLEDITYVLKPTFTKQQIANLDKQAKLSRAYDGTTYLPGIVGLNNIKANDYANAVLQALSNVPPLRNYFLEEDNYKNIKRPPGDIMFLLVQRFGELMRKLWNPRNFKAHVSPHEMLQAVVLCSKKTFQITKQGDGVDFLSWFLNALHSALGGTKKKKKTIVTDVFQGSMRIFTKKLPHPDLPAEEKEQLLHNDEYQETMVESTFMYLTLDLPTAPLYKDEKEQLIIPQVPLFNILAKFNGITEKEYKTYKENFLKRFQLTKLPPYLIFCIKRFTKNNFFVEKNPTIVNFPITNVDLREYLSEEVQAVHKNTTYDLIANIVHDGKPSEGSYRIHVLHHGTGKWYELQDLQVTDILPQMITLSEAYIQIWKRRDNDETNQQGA

B1: SART1 (protein, UniProt O43290 1-800)
chain: MGSSKKHRGEKEAAGTTAAAGTGGATEQPPRHREHKKHKHRSGGSGGSGGERRKRSRERGGERGSGRRGAEAEARSSTHGRERSQAEPSERRVKREKRDDGYEAAASSKTSSGDASSLSIEETNKLRAKLGLKPLEVNAIKKEAGTKEEPVTADVINPMALRQREELREKLAAAKEKRLLNQKLGKIKTLGEDDPWLDDTAAWIERSRQLQKEKDLAEKRAKLLEEMDQEFGVSTLVEEEFGQRRQDLYSARDLQGLTVEHAIDSFREGETMILTLKDKGVLQEEEDVLVNVNLVDKERAEKNVELRKKKPDYLPYAEDESVDDLAQQKPRSILSKYDEELEGERPHSFRLEQGGTADGLRERELEEIRAKLRLQAQSLSTVGPRLASEYLTPEEMVTFKKTKRRVKKIRKKEKEVVVRADDLLPLGDQTQDGDFGSRLRGRGRRRVSEVEEEKEPVPQPLPSDDTRVENMDISDEEEGGAPPPGSPQVLEEDEAELELQKQLEKGRRLRQLQQLQQLRDSGEKVVEIVKKLESRQRGWEEDEDPERKGAIVFNATSEFCRTLGEIPTYGLAGNREEQEELMDFERDEERSANGGSESDGEENIGWSTVNLDEEKQQQDFSASSTTILDEEPIVNRGLAAALLLCQNKGLLETTVQKVARVKAPNKSLPSAVYCIEDKMAIDDKYSRREEYRGFTQDFKEKDGYKPDVKIEYVDETGRKLTPKEAFRQLSHRFHGKGSGKMKTERRMKKLDEEALLKKMSSSDTPLGTVALLQEKQKAQKTPYIVLSGSGKSMNANTITK
B2: DDX23 (protein, UniProt Q9BUQ8 1-820)
chain: MAGELADKKDRDASPSKEERKRSRTPDRERDRDRDRKSSPSKDRKRHRSRDRRRGGSRSRSRSRSKSAERERRHKERERDKERDRNKKDRDRDKDGHRRDKDRKRSSLSPGRGKDFKSRKDRDSKKDEEDEHGDKKPKAQPLSLEELLAKKKAEEEAEAKPKFLSKAEREAEALKRRQQEVEERQRMLEEERKKRKQFQDLGRKMLEDPQERERRERRERMERETNGNEDEEGRQKIREEKDKSKELHAIKERYLGGIKKRRRTRHLNDRKFVFEWDASEDTSIDYNPLYKERHQVQLLGRGFIAGIDLKQQKREQSRFYGDLMEKRRTLEEKEQEEARLRKLRKKEAKQRWDDRHWSQKKLDEMTDRDWRIFREDYSITTKGGKIPNPIRSWKDSSLPPHILEVIDKCGYKEPTPIQRQAIPIGLQNRDIIGVAETGSGKTAAFLIPLLVWITTLPKIDRIEESDQGPYAIILAPTRELAQQIEEETIKFGKPLGIRTVAVIGGISREDQGFRLRMGCEIVIATPGRLIDVLENRYLVLSRCTYVVLDEADRMIDMGFEPDVQKILEHMPVSNQKPDTDEAEDPEKMLANFESGKHKYRQTVMFTATMPPAVERLARSYLRRPAVVYIGSAGKPHERVEQKVFLMSESEKRKKLLAILEQGFDPPIIIFVNQKKGCDVLAKSLEKMGYNACTLHGGKGQEQREFALSNLKAGAKDILVATDVAGRGIDIQDVSMVVNYDMAKNIEDYIHRIGRTGRAGKSGVAITFLTKEDSAVFYELKQAILESPVSSCPPELANHPDAQHKPGTILTKKRREETIFA
B3: PRPF3 (protein, UniProt O43395 1-683)
chain: MALSKRELDELKPWIEKTVKRVLGFSEPTVVTAALNCVGKGMDKKKAADHLKPFLDDSTLRFVDKLFEAVEEGRSSRHSKSSSDRSRKRELKEVFGDDSEISKESSGVKKRRIPRFEEVEEEPEVIPGPPSESPGMLTKLQIKQMMEAATRQIEERKKQLSFISPPTPQPKTPSSSQPERLPIGNTIQPSQAATFMNDAIEKARKAAELQARIQAQLALKPGLIGNANMVGLANLHAMGIAPPKVELKDQTKPTPLILDEQGRTVDATGKEIELTHRMPTLKANIRAVKREQFKQQLKEKPSEDMESNTFFDPRVSIAPSQRQRRTFKFHDKGKFEKIAQRLRTKAQLEKLQAEISQAARKTGIHTSTRLALIAPKKELKEGDIPEIEWWDSYIIPNGFDLTEENPKREDYFGITNLVEHPAQLNPPVDNDTPVTLGVYLTKKEQKKLRRQTRREAQKELQEKVRLGLMPPPEPKVRISNLMRVLGTEAVQDPTKVEAHVRAQMAKRQKAHEEANAARKLTAEQRKVKKIKKLKEDISQGVHISVYRVRNLSNPAKKFKIEANAGQLYLTGVVVLHKDVNVVVVEGGPKAQKKFKRLMLHRIKWDEQTSNTKGDDDEESDEEAVKKTNKCVLVWEGTAKDRSFGEMKFKQCPTENMAREHFKKHGAEHYWDLALSESVLESTD

Molecular target: T1, Flag-tagged USP39 (ubiquitin-specific protease 39) (human)
Assay: co-IP; KYSE30 cells, RIPA lysis buffer; lysate with anti-FLAG M2 affinity gel and anti-FLAG antibody overnight at 4 °C, washed three times with TBST, Western blot

| Binder | binding |
| --- | --- |
| B1 | binds |
| B2 | binds |
| B3 | binds |
